PubChem BioAssay AID1487 (National Center for Advancing Translational Sciences (NCATS), 2009)
The campaign covered roughly 200,000 compounds. About 25 (0.01%) were called active. This list was built around the results that the source calls inconclusive (neither active nor inactive); the mix of calls is not that of the screen. Calls come from the whole dose curve; as a rule, active = well fitted inhibition curve with a large enough effect in the signal ratio, with a control signal flat (not every such curve was filed as active); inconclusive = small, poorly fitted or top-dose-only effect, or effect the other way, or a change in a side signal; inactive = flat fitted curve, though single readings scatter; the % refers to the signal ratio. Potencies beside an inconclusive call are fits to weak or partial responses and may not hold up.
% is set by controls: 0 for no effect and ±100 for the full control effect; potency is the fitted concentration of half-maximal effect.

Test: qHTS Assay for Modulators of Lamin A Splicing
Details: HeLa LMNA splicing GFP/RFP minigene ratio, 48 h; ratio change, negative = inhibition: at 46.1 µM (top of the series) unless noted
Summary of the method: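 Read-out is the ratio of GFP to DsRed2 object intensity, acquired by 488 nm laser-scanning cytometry on HeLa lamin A-EGFP minigene reporter cells. Compound incubation 48 hrs at 37 °C in Opti-MEM with 2% FBS; DMSO 0.5% final.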
With COc1cccc(NC(=O)CSc2nnc(Cc3cccs3)n2-c2ccc(C)cc2)c1 the ratio change, negative = inhibition was inconclusive: 13.4%.
With CCC(C)(C)n1nnnc1C(c1ccccc1OC)N1CCSCC1 (centres undefined) the ratio change, negative = inhibition was inconclusive: 30.1%.
In the case of CCN1/C(=C2\C(=O)N(C)C(=S)N2C)C=Cc2cc(OC)ccc21, the ratio change, negative = inhibition is reported as “inactive”.
With O=C(O)CS(=O)(=O)c1ccc(C(F)(F)F)cn1 the ratio change, negative = inhibition was “inactive”.
For Cc1nc(SCC(=O)c2ccccc2)c(C#N)c(-c2ccco2)c1C(=O)NCc1ccco1, the ratio change, negative = inhibition was “inactive”.
For COc1ccccc1C(=O)Nc1nnc(S(=O)(=O)N2CCCCCC2)s1, the ratio change, negative = inhibition was “inactive”.
In the case of Cc1ccc(C)c(-n2nnnc2SCC(=O)c2ccc3c(c2)NC(=O)CO3)c1, the ratio change, negative = inhibition is reported as inconclusive: -20.2%.
With COc1ccccc1NS(=O)(=O)c1cc(NC(=O)c2ccc(=O)[nH]c2)ccc1N1CCOCC1 the ratio change, negative = inhibition was “inactive”.
In the case of Nc1cccc(Oc2ccc([N+](=O)[O-])cc2)c1, the ratio change, negative = inhibition is reported as inconclusive: -36.3% [at 46 µM].
For O=C(OCc1cc(=O)n2c3c(sc2n1)CCCC3)c1cccc(NC(=O)c2ccccc2F)c1, the ratio change, negative = inhibition was “inactive”.
For N#Cc1c2c(c[nH]c1=O)CCN2Cc1ccccc1, the ratio change, negative = inhibition was “inactive”.
For O=C(Nc1cccc(Cl)c1)c1csnn1, the ratio change, negative = inhibition was inconclusive: 38.7% [at 46 µM].
In the case of CC1CCc2sc(C(=O)NN=C3CCC(c4ccccc4)CC3)cc2C1 (centres undefined), the ratio change, negative = inhibition is reported as “inactive”.
For NC1=C(c2ccc(F)cc2)C(=O)CS1, the ratio change, negative = inhibition was “inactive”.
For O=c1ccn(-c2ccccc2)[nH]1, the ratio change, negative = inhibition was inconclusive: 4.34% [at 46 µM].
For CCOC(=O)CNC(=O)CNC(=O)c1nn(-c2ccc(OC)c(Cl)c2)c(=O)c2ccccc12, the ratio change, negative = inhibition was inconclusive: 9.51% [at 46 µM].
For COC(=O)c1ccccc1NC(=O)/C=C/c1ccco1, the ratio change, negative = inhibition was inconclusive: 2.63%.
For CCOC(=O)C1CCCN(C(=O)c2ccc3c(c2)N(Cc2ccccc2)C(=O)c2ccccc2S3=O)C1 (centres undefined), the ratio change, negative = inhibition was “inactive”.
For CCCN1CCCc2cc(CN(CCCN3CCOCC3)C(=O)Nc3ccc(CC)cc3)ccc21, the ratio change, negative = inhibition was inconclusive: 18.7% [at 46 µM].
For CCN(/N=C/c1ccc(Cl)cc1)c1cc(=O)n(C)c(=O)[nH]1, the ratio change, negative = inhibition was “inactive”.
For Cc1nn(CC(=O)NCc2ccc(OC(C)C)cc2)c(=O)c2c(C)n(-c3ccc(Cl)cc3)nc12, the ratio change, negative = inhibition was inconclusive: 2.76% [at 46 µM].
In the case of Nc1c2ccccc2nc2c(O)cccc12, the ratio change, negative = inhibition is reported as “inactive”.
In the case of COCCn1c(=O)c(-c2cccc(C#N)c2)nc2cnc(Nc3ccccc3)nc21, the ratio change, negative = inhibition is reported as inconclusive: 57.7%.
For CS(=O)(=O)N1CCCC(C(=O)Nc2ccc3c(c2)OCCO3)C1 (centres undefined), the ratio change, negative = inhibition was inconclusive: 8.25% [at 46 µM].
In the case of O=C(CN1C(=O)C(=O)c2ccccc21)NC1CCCCC1, the ratio change, negative = inhibition is reported as “inactive”.
For CC(C)NS(=O)(=O)c1ccc(OCC(=O)Nc2cccc(F)c2)cc1, the ratio change, negative = inhibition was inconclusive: -3.62% [at 46 µM].
For O=C(O)c1ccc(-c2nc(-c3ccc(Cl)cc3)cs2)cc1, the ratio change, negative = inhibition was inconclusive: 4.49% [at 46 µM].
In the case of Cc1ccc(Oc2nc3ccccn3c(=O)c2/C=C(\C#N)C(=O)Nc2c(C)n(C)n(-c3ccccc3)c2=O)c(C)c1, the ratio change, negative = inhibition is reported as “inactive”.
With Cc1ccc(S(=O)(=O)N/N=C/c2cccc3nccnc23)cc1 the ratio change, negative = inhibition was inconclusive: -42% [at 46 µM].
With C=CCn1c(SCc2c(C)noc2C)nc2sc3c(c2c1=O)CCCC3 the ratio change, negative = inhibition was inconclusive: -19.4%.
In the case of COc1ccc(NS(=O)(=O)c2cc(C(=O)O)ccc2C)cc1, the ratio change, negative = inhibition is reported as “inactive”.
With C/C(=N\NC(N)=O)c1cccc(Cl)c1 the ratio change, negative = inhibition was inconclusive: -22.6%.
In the case of Cn1c(=O)c2c(nc(NCCc3ccccc3)n2Cc2ccccc2)n(C)c1=O, the Potency is reported as inconclusive: 35.5 µM [fluorescent, single point].
In the case of COc1ccc(N2CC(NC(=O)c3cccs3)CC2=O)cc1 (centres undefined), the ratio change, negative = inhibition is reported as “inactive”.
With CCN1C(=O)/C(=C\c2ccco2)C(C(=O)OC)=C1C the ratio change, negative = inhibition was “inactive”.
In the case of CCOC(=O)CNC(=O)c1sc(NC(=O)c2cccc(F)c2)nc1C, the ratio change, negative = inhibition is reported as inconclusive: 15.2%.
In the case of O=C(Cn1cc([N+](=O)[O-])cn1)NCC1CCCO1 (centres undefined), the ratio change, negative = inhibition is reported as inconclusive: 5.4%.
With Cc1csc(SCC(=O)NC(=O)C2CCCCC2)n1 the ratio change, negative = inhibition was “inactive”.
In the case of O=C(COc1ccc(S(=O)(=O)N2CCCC2)cc1)NCC1CCCO1 (centres undefined), the ratio change, negative = inhibition is reported as inconclusive: 4% [at 46 µM].
With Cc1ccc(C)c(NC(=S)NCCSc2ccc(Cl)cc2)c1 the Potency was inconclusive: 35.5 µM [fluorescent, single point].
With CN1CCN(c2ncc3nc(-c4cn(C)c5ccccc45)c(=O)n(C)c3n2)CC1 the ratio change, negative = inhibition was inconclusive: -15.9%.
With Cc1c(C(=O)OCC(=O)Nc2cccc(S(N)(=O)=O)c2)oc2c1ccc1ccccc12 the ratio change, negative = inhibition was inconclusive: 17.6% [at 46 µM].
For COc1cc(C(=O)Nc2nnc(C3CC3)s2)ccc1OCc1c(C)noc1C, the ratio change, negative = inhibition was inconclusive: -13.8% [at 46 µM].
In the case of CN(C)CC/C=C1\c2ccccc2COc2ccccc21, the ratio change, negative = inhibition is reported as inconclusive: -38.8%.
For CC1CC(C)CN(S(=O)(=O)c2ccc(NC(=O)C3COc4ccccc4O3)cc2)C1 (centres undefined), the Potency was inconclusive: 25.1 µM [falling, single point].
For CN1[C@@H]2CC[C@H]1CC(OC(=O)[C@@H](CO)c1ccccc1)C2 (some centres undefined), the ratio change, negative = inhibition was inconclusive: -5.81%.
For CC(=O)c1cnc(Nc2ccccc2)s1, the ratio change, negative = inhibition was inconclusive: -1.82%.
In the case of O=C(COc1cccc(NC(=O)c2ccccc2)c1)c1ccc(F)cc1, the Potency is reported as inconclusive: 35.5 µM [fluorescent, single point].
In the case of O=C(CSc1cccc(C(F)(F)F)c1)Nc1cc(S(=O)(=O)N2CCCC2)ccc1Cl, the Potency is reported as inconclusive: 35.5 µM [fluorescent, single point].
In the case of CCc1c(C)sc(NC(=O)c2cccs2)c1C(=O)OC(C)C, the ratio change, negative = inhibition is reported as inconclusive: 12.5%.
With COc1cccc2sc(NC(=O)CS(=O)(=O)c3ccc(C)cc3)nc12 the ratio change, negative = inhibition was “inactive”.
In the case of COC(=O)c1cccnc1-n1c(=O)c2cccnc2n(Cc2cccc(C(F)(F)F)c2)c1=O, the ratio change, negative = inhibition is reported as inconclusive: 5.6% [at 46 µM].
In the case of COc1ccc(Cn2c(CO)cnc2SCC(=O)Nc2ccc3c(c2)OCCO3)cc1, the ratio change, negative = inhibition is reported as inconclusive: -11.8% [at 46 µM].
With O=c1[nH]c(=S)[nH]c(O)c1N=Nc1ccc(-c2ccccc2)cc1[N+](=O)[O-] the ratio change, negative = inhibition was inconclusive: -31.7% [at 46 µM].
With COc1cccc(C2NC(=S)NC3=C2CCc2ccccc23)c1 (centres undefined) the ratio change, negative = inhibition was “inactive”.
For Cc1ccc(S(=O)(=O)/N=C2\CN(C)C(=O)N2C)cc1, the ratio change, negative = inhibition was “inactive”.
In the case of CCOc1cc2nc(-c3ccc(OC)c(OC)c3)nc(N3CCOCC3)c2cc1OC, the ratio change, negative = inhibition is reported as inconclusive: -32.2%.
For COc1ccc2[nH]c(C)c(CCNC(=S)Nc3ccc(C)cc3)c2c1, the ratio change, negative = inhibition was inconclusive: 15.7% [at 9.22 µM].
In the case of Cc1ccccc1CN1C(=O)c2ccccc2Sc2ccc(C(=O)NC3CCCCC3)cc21, the ratio change, negative = inhibition is reported as “inactive”.
For COc1ccc([N+](=O)[O-])cc1NC(=O)CS(=O)(=O)c1ccc(C)cc1, the ratio change, negative = inhibition was inconclusive: 11.2% [at 46 µM].
For Cc1ccc(/C=C2/NC(=O)N(Cc3ccccc3)C2=O)s1, the Potency was inconclusive: 14.1 µM [activator, partial curve].
In the case of Clc1cccc(N2CCN(c3nnnn3-c3ccccc3)CC2)c1, the ratio change, negative = inhibition is reported as inconclusive: -7.64% [at 9.22 µM].
For Brc1ccccc1-c1nnc(CSc2nnnn2-c2ccccc2)o1, the ratio change, negative = inhibition was “inactive”.
For CCCn1c(SCC(=O)NCCc2ccc(Cl)cc2Cl)n[nH]c1=O, the ratio change, negative = inhibition was inconclusive: -4.03%.
In the case of Cc1cccc(NC(=O)COc2ccc(/C=N\n3cnnc3)cc2)c1, the ratio change, negative = inhibition is reported as “inactive”.
In the case of COc1ccc(OC)c(CNc2nc3ccccc3n2CCN2CCCCC2)c1, the ratio change, negative = inhibition is reported as “inactive”.
For CCCCCCCCCn1c2c(c(=N)c3c1CCC3)CCCC2, the Potency was inconclusive: 35.5 µM [cytotoxic, single point].
In the case of CS(=O)(=O)N(CCc1ccccc1)CC(=O)N1CCN(Cc2ccccc2)CC1, the ratio change, negative = inhibition is reported as inconclusive: -47.2%.
With O=C(CCc1ccc(S(=O)(=O)N2CCOCC2)cc1)Nc1ccc(N2CCOCC2)cc1 the ratio change, negative = inhibition was inconclusive: 4.39%.
For COc1ccc2oc3ccc(OC)cc3c(=O)c2c1, the ratio change, negative = inhibition was inconclusive: 5.14%.
With Cc1[nH]nc(-c2ccc(OCc3cnn(-c4ccccc4)c3)c(C)c2O)c1Oc1ccccc1 the ratio change, negative = inhibition was inconclusive: 17.9%.
For C=CCNc1nc(-c2c(C)nc3sccn23)cs1, the Potency was inconclusive: 14.1 µM [fluorescent, single point].
With COc1ccc(NC(=O)CN(C)S(=O)(=O)c2ccc3[nH]c4c(c3c2)CCCC4)cc1OC the Potency was inconclusive: 35.5 µM [inhibitor, single point].
For COc1cccc(C(=O)Nc2sc3c(c2C#N)CCN(C(C)=O)C3)c1, the ratio change, negative = inhibition was inconclusive: 3.94% [at 9.22 µM].
For CN(C)S(=O)(=O)Nc1ccc(-c2cn3ccsc3n2)cc1, the ratio change, negative = inhibition was inconclusive: -2% [at 46 µM].
With CCN(CC)S(=O)(=O)c1ccc(O)c(NC(=O)CN2CCc3ccccc3C2)c1 the ratio change, negative = inhibition was inconclusive: -19.5% [at 46 µM].
With O=C(CCCc1nc(-c2ccco2)no1)Nc1ccccc1[N+](=O)[O-] the ratio change, negative = inhibition was “inactive”.
In the case of CC1=NNC(=O)C1CCC(=O)N/N=C\c1ccccc1[N+](=O)[O-] (centres undefined), the ratio change, negative = inhibition is reported as “inactive”.
In the case of CCCN=Cc1ccc(O)cc1, the ratio change, negative = inhibition is reported as inconclusive: 20.9% [at 46 µM].
With O=C(CNS(=O)(=O)c1ccccc1)Nc1ccc2c(c1)OCO2 the ratio change, negative = inhibition was inconclusive: 6.25% [at 9.22 µM].
For COCCNC(=O)c1ccc2nc(CCc3ccccc3)oc2c1, the ratio change, negative = inhibition was inconclusive: -11.5% [at 46 µM].
In the case of COc1ccc(NC(=O)c2oc3ccc(S(=O)(=O)N(C)C4CCCCC4)cc3c2C)cc1Cl, the ratio change, negative = inhibition is reported as inconclusive: -18.7% [at 46 µM].
For CCOc1ccc2nc(NS(=O)(=O)Cc3ccccc3)sc2c1, the ratio change, negative = inhibition was inconclusive: -15.3%.
For CCn1cc(C(=O)NC(=S)Nc2cccc(O)c2)cn1, the ratio change, negative = inhibition was “inactive”.
